Results are given in words; binding and its absence hold for the method and conditions named. In cells and extracts the contact can be indirect. Some binding calls cover weakened binding; strength is not graded here. Tags and fused reporters may be left off the sequences shown.

Assay [1] deals with T1, FliG-His (Salmonella enterica) (UniProt P0A1J9).
T1 sequence: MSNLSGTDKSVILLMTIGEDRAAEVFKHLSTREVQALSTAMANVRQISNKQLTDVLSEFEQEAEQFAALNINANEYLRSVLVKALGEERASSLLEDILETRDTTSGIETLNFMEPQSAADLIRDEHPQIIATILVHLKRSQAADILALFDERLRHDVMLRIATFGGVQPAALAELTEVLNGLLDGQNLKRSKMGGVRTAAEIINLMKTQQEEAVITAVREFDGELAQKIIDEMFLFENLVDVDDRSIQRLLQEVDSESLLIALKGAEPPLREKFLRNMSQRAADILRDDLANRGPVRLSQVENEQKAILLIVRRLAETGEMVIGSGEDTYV
Description: pull-down; Ni affinity copurification with FliG-His from SJW1368 co-expressing FlhA, FlhB, FliF, FliG-His, FliO, FliP, HA-FliQ and FliR-FLAG; membranes solubilised with 1% DDM.

Assay [2] has as its target T2, FliG-His (Salmonella enterica), P0A1J9.
T2 chain: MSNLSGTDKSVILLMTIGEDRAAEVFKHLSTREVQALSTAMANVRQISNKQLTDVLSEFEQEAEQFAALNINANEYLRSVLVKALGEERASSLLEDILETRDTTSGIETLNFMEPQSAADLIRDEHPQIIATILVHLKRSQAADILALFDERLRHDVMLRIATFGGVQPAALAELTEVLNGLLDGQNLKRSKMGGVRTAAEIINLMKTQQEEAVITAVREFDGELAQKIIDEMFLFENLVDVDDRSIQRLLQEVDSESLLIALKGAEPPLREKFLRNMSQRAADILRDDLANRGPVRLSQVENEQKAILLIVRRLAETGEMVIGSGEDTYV
The description is as above. Conditions: remark: other sources report otherwise.

B1: FlhA (protein, UniProt P40729 1-692)
chain: MANLVAMLRLPSNLKSTQWQILAGPILILLILSMMVLPLPAFILDLLFTFNIALSIMVLLVAMFTQRTLDFAAFPTILLFTTLLRLALNVASTRIILMEGHTGAAAAGKVVEAFGHFLVGGNFAIGIVVFIILVIINFMVITKGAGRIAEVGARFVLDGMPGKQMAIDADLNAGLIGEDEAKKRRSEVTQEADFYGSMDGASKFVRGDAIAGILIMVINVVGGLLVGVLQHGMSIGSAAESYTLLTIGDGLVAQIPALVISTAAGVIVTRVSTDQDVGEQMVGQLFSNPRVMLLAAAVLGLLGMVPGMPNLVFLLFTAALLGLAWWLRGREEKAPEEPQPVKMPENNSVVEATWNDVQLEDSLGMEVGYRLIPMVDFQQDGELLGRIRSIRKKFAQDMGFLPPVVHIRDNMDLQPARYRILMKGVEIGSGDAYPGRWLAINPGTAAGTLPGEKTVDPAFGLDAIWIESALKEQAQIQGFTVVEASTVVATHLNHLIGQFSAELFGRQEAQQLLDRVSQEMPKLTEDLVPGVVTLTTLHKVLQNLLAEKVPIRDMRTILETLAEHAPLQSDPHELTAVVRVALGRAITQQWFPGNEEVQVIGLDTALERLLLQALQGGGGLEPGLADRLLAQTQEALSRQEMLGAPPVLLVNHALRPLLSRFLRRSLPQLVVLSNLELSDNRHIRMTATIGGK
With B1, the binding entry in assay [1] is listed as “binds”.

B2: FlhB (natural protein)
chain: MAEESDDDKTEAPTPHRLEKAREEGQIPRSRELTSLLILLVGVCIIWFGGESLARQLAGMLSAGLHFDHRMVNDPNLILGQIILLIKAAMMALLPLIAGVVLVALISPVMLGGLIFSGKSLQPKFSKLNPLPGIKRMFSAQTGAELLKAVLKSTLVGCVTGFYLWHHWPQMMRLMAESPIVAMGNALDLVGLCALLVVLGVIPMVGFDVFFQIFSHLKKLRMSRQDIRDEFKESEGDPHVKGKIRQMQRAAAQRRMMEDVPKADVIVTNPTHYSVALQYDENKMSAPKVVAKGAGLIALRIREIGAEHRVPTLEAPPLARALYRHAEIGQQIPGQLYAAVAEVLAWVWQLKRWRLAGGQRPPQPENLPVPEALDFMNEKNTDG
notes: FlhB, Salmonella enterica, transmembrane export gate protein; its C-terminal cytoplasmic domain undergoes autocleavage between Asp-269 and Pro270 as printed; source: Salmonella SJW1368, pTrc99A-based plasmid, in DDM- or LMNG-solubilised membranes; co-purified
B2: the binding entry in assay [1] was “no binding”.

B3: His-St-FliP (Salmonella FliP with a hexahistidine tag inserted between Gln-22 and Leu-23) (natural protein)
chain: QLPGLISQPLAGGGQSWSLSVQTLVFITSLTFLPAILLMMTSFTRIIIVFGLLRNALGTPSAPPNQVLLGLALFLTFFIMSPVIDKIYVDAYQPFSEQKISMQEALDKGAQPLRAFMLRQTREADLALFARLANSGPLQGPEAVPMRILLPAYVTSELKTAFQIGFTIFIPFLIIDLVIASVLMALGMMMVPPATIALPFKLMLFVLVDGWQLLMGSLAQSFYS
notes: FliP, Salmonella enterica, 25-kDa transmembrane protein; mature form studied; the signal peptide (Met-1 to Gln-22) is cleaved during membrane insertion; tag LHHHHHH inserted between Gln-22 and Leu-23; Hexameric ring in SEC peak 2; also called His-FliP; FliP6 ring; source: Salmonella SJW1368, membranes solubilised with 1% DDM or 1% LMNG; purified (Ni-NTA, SEC); not shown: His6 (LHHHHHH), internal …
With B3, the binding entry in assay [2] is “no binding”.

B4: HA-FliQ (natural protein)
chain: MTPESVMMMGTEAMKVALALAAPLLLVALITGLIISILQAATQINEMTLSFIPKIVAVFIAIIVAGPWMLNLLLDYVRTLFSNLPYIIG
notes: FliQ, Salmonella enterica, transmembrane export gate protein; source: Salmonella SJW1368, pTrc99A-based plasmid, in DDM- or LMNG-solubilised membranes; co-purified
Regarding B4, in assay [1], the binding result was “no binding”.

B5: FliR-FLAG (natural protein)
chain: MIQVTSEQWLYWLHLYFWPLLRVLALISTAPILSERAIPKRVKLGLGIMITLVIAPSLPANDTPLFSIAALWLAMQQILIGIALGFTMQFAFAAVRTAGEFIGLQMGLSFATFVDPGSHLNMPVLARIMDMLAMLLFLTFNGHLWLISLLVDTFHTLPIGSNPVNSNAFMALARAGGLIFLNGLMLALPVITLLLTLNLALGLLNRMAPQLSIFVIGFPLTLTVGIMLMAALMPLIAPFCEHLFSEIFNLLADIVSEMPINNNP
notes: FliR, Salmonella enterica, transmembrane export gate protein; also called FLAG-FliR (as printed in the methods); source: Salmonella SJW1368, pTrc99A-based plasmid, in DDM- or LMNG-solubilised membranes; co-purified (Ni-NTA, anti-FLAG gel, SEC)
With B5, in assay [1], the binding result is “no binding”.
